From article doi:10.1101/248278 come the findings set out here.

Results are given in words; binding and its absence hold for the method and conditions named. Binding seen in cells or lysates may run through a third protein. Here binding means that the protein was enriched with, or labelled near, the bait; the list need not be complete. Tags and fused reporters may be left off the sequences shown.

T1: AC102 fused to a Twin-Strep-tag (Autographa californica multiple nucleopolyhedrovirus (AcMNPV)) (UniProt P41482)
T1 sequence: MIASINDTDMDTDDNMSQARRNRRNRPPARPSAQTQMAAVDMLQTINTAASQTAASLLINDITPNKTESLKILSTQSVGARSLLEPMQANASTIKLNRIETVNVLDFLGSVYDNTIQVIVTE

B1: E25 (protein, UniProt P41483 1-228)
chain: MWGIVLLIVLLILFYLYWTNALNFNSLTESSPSLGQSSDSVELDENKQLNVKLNNGRVANLRIAHGDNKLSQVYIAEKPLSIDDIVKEGSNKVGTNSVFLGTVYDYGIKSPNAASTSSNVTMTRGAANFDIKEFKSMFIVFKGVTPTKTVEDNGMLRFEVDNMIVCLIDPNTAPLSEREVRELRKSNCTLVYTRNAAAQQVLLENNFTVINAEQTAYLKNYKSYREMN
B2: VP39 (protein, UniProt P17499 1-347)
chain: MALVPVGMAPRQMRVNRCIFASIVSFDACITYKSPCSPDAYHDDGWFICNNHLIKRFKMSKMVLPIFDEDDNQFKMTIARHLVGNKERGIKRILIPSATNYQDVFNLNSMMQAEQLIFHLIYNNENAVNTICDNLKYTEGFTSNTQRVIHSVYATTKSILDTTNPNTFCSRVSRDELRFFDVTNARALRGGAGDQLFNNYSGFLQNLIRRAVAPEYLQIDTEELRFRNCATCIIDETGLVASVPDGPELYNPIRSSDIMRSQPNRLQIRNVLKFEGDTRELDRTLSGYEEYPTYVPLFLGYQIINSENNFLRNDFIPRANPNATLGGGAVAGPAPGVAGEAGGGIAV
B3: E18 (protein, UniProt P41701 1-90)
chain: MIYTDPTTGATTSTDAPSTNYLNRLTPNMFLTILAVVVIIALIIIFVQSSSNGNSSGGNVPPNALGGFVNPLNATMRANPFMNTPQRQML
B4: VP80 (protein, UniProt Q00733 1-691)
chain: MNDSNSLLITRLAAQILSRNMQTVDVIVDDKTLSLEEKIDTLTSMVLAVNSPPQSPPRVTSSDLAASIIKNNSKMVGNDFEMRYNVLRMAVVFVKHYPKYYNETTAGLVAEIESNLLQYQNYVNQGNYQNIEGYDSLLNKAEECYVKIDRLFKESIKKIMDDTEAFEREQEAERLRAEQTAANALLERRAQTSADDVVNRADANIPTAFSDPLPGPSAPRYMYESSESDTYMETARRTAEHYTDQDKDYNAAYTADEYNSLVKTVLLRLIEKALATLKNRLHITTIDQLKKFRDYLNSDADAGEFQIFLNQEDCVILKNLSNLASKFFNVRCVADTLEVMLEALRNNIELVQPESDAVRRIVIKMTQEIKDSSTPLYNIAMYKSDYDAIKNKNIKTLFDLYNDRLPINFLDTSATSPVRKTSGKRSAEDDLLPTRSSKRANRPEINVISSEDEQEDDDVEDVDYEKESKRRKLEDEDFLKLKALEFSKDIVNEKLQKIIVVTDGMKRLYEYCNCKNSLETLPSAANYGSLLKRLNLYNLDHIEMNVNFYELLFPLTLYNDNDNSDKTLSHQLVNYIFLASNYFQNCAKNFNYMRETFNVFGPFKQIDFMVMFVIKFNFLCDMRNFAKLIDELVPNKQPNMRIHSVLVMRDKIVKLAFSNLQFQTFSKKDKSRNTKHLQRLIMLMNANYNVI

This experiment deals with T1, AC102 fused to a Twin-Strep-tag (Autographa californica multiple nucleopolyhedrovirus (AcMNPV)). The experiment in a line: affinity purification with mass spectrometry.
Regarding ODV-EC27, the binding entry is listed as “binds”.
For the molecule B1, the binding entry was “binds”.
The same measure for B2: “binds”; for B3: “binds”; for B4: “binds”.
